The supplement of paper PMC11348887
Structures can show the parent of a compound that is named as a salt. This is one part of the list. Most values lie at the level of the controls, where differences are scatter.

These compounds were tested on hPSC-derived cortical neurons (WA09) (assay: total neurite length per nucleus (MAP2) z-score; higher = more neurite growth). Details: 5 µM; treatment: days 7-14 after plating, readout day 21.

| SMILES | total neurite length per nucleus (z-score) |
| --- | --- |
| CCN(CC)CC#CCOC(=O)C(O)(c1ccccc1)C1CCCCC1 (stereo unspecified) [Oxybutynin chloride] | 0.00772 |
| C=CC(=O)Nc1cccc(Nc2nc(Nc3ccc(Oc4ccnc(C(=O)NC)c4)cc3)ncc2F)c1 | 0.293 |
| CC(C)n1c(/C=C/C(O)CC(O)CC(=O)O)c(-c2ccc(F)cc2)c2ccccc21 (stereo unspecified) [Fluvastatin Sodium] | -0.7 |
| CN1C(=O)C(Cc2c[nH]c3ccccc23)NC1=S (stereo unspecified) [Necrostatin-1] | -0.253 |
| Nc1ccc(S(=O)(=O)Nc2ncccn2)cc1 [Sodium sulfadiazine] | 0.804 |
| Nc1nc(=O)c2nc(CNc3ccc(C(=O)N[C@@H](CCC(=O)O)C(=O)O)cc3)cnc2[nH]1 [Folic acid] | 0.334 |
| CO[C@H]1C[C@@H]2CC[C@@H](C)[C@@](O)(O2)C(=O)C(=O)N2CCCC[C@H]2C(=O)O[C@H]([C@H](C)C[C@@H]2CC[C@@H](OP(C)(C)=O)[C@H](OC)C2)CC(=O)[C@H](C)/C=C(\C)[C@@H](O)[C@@H](OC)C(=O)[C@H](C)C[C@H](C)/C=C/C=C/C=C/1C [Ridaforolimus (Deforolimus, MK-8669)] | -1.49 |
| COc1ccccc1OCC(O)CN1CCN(CC(=O)Nc2c(C)cccc2C)CC1 (stereo unspecified) [Ranolazine] | 0.371 |
| Oc1ccc(OC2CCCCO2)cc1 (stereo unspecified) [Deoxyarbutin] | 0.333 |
| NCCCCC(NC(=O)C1CCCN1C(=O)C1CSSCC(N)C(=O)NC(Cc2ccc(O)cc2)C(=O)NC(Cc2ccccc2)C(=O)NC(CCC(N)=O)C(=O)NC(CC(N)=O)C(=O)N1)C(=O)NCC(N)=O (stereo unspecified) [Lypressin Acetate] | -0.959 |
| C=CC(=O)Nc1cc(Nc2nccc(-c3c[nH]c4ccccc34)n2)c(OC)cc1N(C)CCN(C)C | -2.96 |
| C[C@]12CCC3=C4CCC(=O)C=C4CC[C@H]3[C@@H]1CC[C@@]2(O)CC#N [Dienogest] | 0.331 |
| Cc1nnc(SCC2=C(C(=O)O)N3C(=O)[C@@H](NC(=O)Cn4cnnn4)[C@H]3SC2)s1 [Cefazolin Sodium] | 1.2 |
| COc1ccc([C@@H]2Sc3ccccc3N(CCN(C)C)C(=O)[C@@H]2OC(C)=O)cc1 [Diltiazem HCl] | 0.614 |
| NS(=O)(=O)c1cc2c(cc1Cl)NCNS2(=O)=O [Hydrochlorothiazide] | -0.372 |
| CCN(CC)CCN(Cc1ccc(-c2ccc(C(F)(F)F)cc2)cc1)C(=O)Cn1c(SCc2ccc(F)cc2)nc(=O)c2c1CCC2 | -3.54 |

A different layout for part of the listing above.
SMILES | total neurite length per nucleus (z-score)
CCN(CC)CC#CCOC(=O)C(O)(c1ccccc1)C1CCCCC1 (stereo unspecified) [Oxybutynin chloride] | 0.00772
CN1C(=O)C(Cc2c[nH]c3ccccc23)NC1=S (stereo unspecified) [Necrostatin-1] | -0.253
COc1ccccc1OCC(O)CN1CCN(CC(=O)Nc2c(C)cccc2C)CC1 (stereo unspecified) [Ranolazine] | 0.371
NCCCCC(NC(=O)C1CCCN1C(=O)C1CSSCC(N)C(=O)NC(Cc2ccc(O)cc2)C(=O)NC(Cc2ccccc2)C(=O)NC(CCC(N)=O)C(=O)NC(CC(N)=O)C(=O)N1)C(=O)NCC(N)=O (stereo unspecified) [Lypressin Acetate] | -0.959
C[C@]12CCC3=C4CCC(=O)C=C4CC[C@H]3[C@@H]1CC[C@@]2(O)CC#N [Dienogest] | 0.331
Cc1nnc(SCC2=C(C(=O)O)N3C(=O)[C@@H](NC(=O)Cn4cnnn4)[C@H]3SC2)s1 [Cefazolin Sodium] | 1.2
COc1ccc([C@@H]2Sc3ccccc3N(CCN(C)C)C(=O)[C@@H]2OC(C)=O)cc1 [Diltiazem HCl] | 0.614
NS(=O)(=O)c1cc2c(cc1Cl)NCNS2(=O)=O [Hydrochlorothiazide] | -0.372
CCN(CC)CCN(Cc1ccc(-c2ccc(C(F)(F)F)cc2)cc1)C(=O)Cn1c(SCc2ccc(F)cc2)nc(=O)c2c1CCC2 | -3.54

Continued:

| SMILES | total neurite length per nucleus (z-score) |
| --- | --- |
| CCN1/C(=C/C(C)=O)Sc2ccc(OC)cc21 | 0.434 |
| CC(C)(C)c1cnc(CSc2cnc(NC(=O)C3CCNCC3)s2)o1 | -3.24 |
| CS(=O)(=O)CCNCc1ccc(-c2ccc3ncnc(Nc4ccc(OCc5cccc(F)c5)c(Cl)c4)c3c2)o1 [Lapatinib] | -1.13 |
| NCC[C@H](O)C(=O)N[C@@H]1C[C@H](N)[C@@H](O[C@H]2O[C@H](CN)[C@@H](O)[C@H](O)[C@H]2O)[C@H](O)[C@H]1O[C@H]1O[C@H](CO)[C@@H](O)[C@H](N)[C@H]1O [Amikacin hydrate] | -0.255 |
| O=C(NCCO)c1cccc(-c2cc(Nc3ccc(OC(F)(F)F)cc3)ncn2)c1 | 0.785 |
| C#Cc1cccc(Nc2ncnc3cc(OC)c(OCCCCCCC(=O)NO)cc23)c1 | -3.14 |
| O=C1Cc2cc(CCN3CCN(c4nsc5ccccc45)CC3)c(Cl)cc2N1 [Ziprasidone HCl] | -0.278 |
| COC(=O)N1CCN(Cc2cccc(NC(=O)Nc3ccc(C)nc3)c2F)CC1 | -0.757 |
| CN1CCN(c2ccc3nc(-c4c(N)c5c(F)cccc5[nH]c4=O)[nH]c3c2)CC1 [Dovitinib (TKI-258) Dilactic Acid] | -2.7 |
| CC[C@@]1(O)C(=O)OCc2c1cc1n(c2=O)Cc2cc3cc(O)ccc3nc2-1 [(S)-10-Hydroxycamptothecin] | -1.95 |
| CN(C)CCc1c[nH]c2ccc(C[C@H]3COC(=O)N3)cc12 [Zolmitriptan] | -0.219 |
| NC1=N[C@@](c2cccc(-c3cncnc3)c2)(c2ccnc(C(F)F)c2)c2cccc(F)c21 | -0.188 |
| CN(C)CCN(Cc1ccccc1)c1ccccn1 [Tripelennamine HCl] | 0.332 |
| O=C(NC[C@H](O)CN1CCc2ccccc2C1)c1ccnc(NC2CCC2)c1 | -1.03 |
| CC(C)(F)C[C@H](N[C@@H](c1ccc(-c2ccc(S(C)(=O)=O)cc2)cc1)C(F)(F)F)C(=O)NC1(C#N)CC1 [Odanacatib (MK-0822)] | 0.347 |
